Our source for the cell number change and AC50 values is PubChem BioAssay AID2685 (National Center for Advancing Translational Sciences (NCATS), 2010).

A short description of this test: qHTS Assay for Lipid Storage Modulators in Drosophila S3 Cells.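 On cell number change: cells counted by Cell Tracker Red CMTPX staining in the red channel.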 To be noted: BODIPY lipid droplet fluorescence, 18-24 h; for cell number change: measured here: cell count max response, cells fed with added oleic acid. Put shortly:
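Drosophila S3 cells loaded with oleic acid (400 uM, as added) and compounds at several concentrations; lipid droplets imaged by 488-nm laser-scanning cytometry, 500–530 nm intensity and object ratio to cell channel. Percent activity normalized to 20 uM Triacsin C.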

Where [1] appears, read: measured here: cell number channel AC50, cells fed with added oleic acid.
The mark [2] stands for this setting: measured here: lipid fluorescence (Fed channel) AC50, cells fed with added oleic acid.

The list shows a part of the results. The main result of the screen is listed elsewhere. These columns were measured beside it and carry no call. The list favours compounds with an active or inconclusive main result. Potencies come from curve fits of mixed quality, noted in brackets.

Turning to `O=C(Nc1ccc(Cl)cc1)Nc1cc(S(=O)(=O)N2CCOCC2)ccc1N1CCCC1`, the cell number change was 45.9%. The AC50 under setting [1] is 20.6 µM [rising, partial curve]. In the case of `CCOc1ccc(-n2c(-c3ccc(Cl)cc3)c[n+]3c2SCC3)cc1`, the cell number change was -32.5%. Further, the AC50 under setting [1] was 0.00517 µM [falling, full curve, poor fit]. Besides, under setting [2], the AC50 was 0.82 µM [falling, full curve, poor fit]. As to `CCOc1ccc(C(=O)/C=C/c2cc(OC)c(OC)c(OC)c2)cc1`, the cell number change is 13.8%. For the same compound, the AC50 under setting [2] was 20.6 µM [rising, partial curve]. In the case of `CCOc1ccc2ccccc2c1/C=N\NC(=O)c1ccc([N+](=O)[O-])cc1`, the AC50 under setting [2] was 0.259 µM [falling, full curve].

In the case of `NC(=O)c1ccc(Cl)c2ccccc12`, the cell number change amounted to 16.1%. In addition, the concentration at half-maximal activity (AC50) under setting [2] is 2.31 µM [rising, single point]. As for `Cc1nc(N)sc1-c1csc(Nc2ccc(S(N)(=O)=O)cc2)n1`, the cell number change was -16.4%. With `Cc1ccc(CNC(=O)CCCc2c[nH]c3ccccc23)cc1`, the cell number change is 24.4%. Besides, the AC50 under setting [1] is 1.84 µM [rising, partial curve, poor fit]. For the same compound, under setting [2], the AC50 is 5.17 µM [falling, single point]. As for `COC(=O)c1nc(NC(=S)NC(=O)c2cccs2)sc1C`, the cell number change is -25.2%. Also, the AC50 under setting [2] is 6.51 µM [falling, single point]. With `CC(C)C(NC(=O)C1CCC(C(C)(C)C)CC1)C(=O)NCc1cccnc1` (stereo not given), under setting [2], the AC50 was 4.11 µM [rising, single point].

Take `CC(=O)N1c2ccc(S(=O)(=O)N3CCCC3)cc2CC1C(=O)NCc1ccccc1F` (stereo not given): the AC50 is 0.731 µM [falling, single point] under setting [1] and 7.31 µM [rising, partial curve] under setting [2]. Take `O=C(c1ccc(COc2ccc(Cl)cc2)o1)N1N=C(C(F)F)CC1(O)C(F)F` (stereo not given): the cell number change is -84.1%. Also, the AC50 under setting [1] is 6.51 µM [falling, partial curve]. Besides, the AC50 under setting [2] is 6.51 µM [rising, single point]. Take `COc1ccc(C2CC(c3cccs3)=NN2c2nc(-c3ccccc3)cs2)cc1OC` (stereo not given): the AC50 under setting [2] is 0.184 µM [rising, full curve, poor fit]. On to `CC1(C(=O)NCc2cccnc2)CCC(=O)N1CCc1ccccc1` (stereo not given), for which the cell number change is 12.2%. For the same compound, under setting [2], the AC50 is 0.0291 µM [rising, full curve, poor fit]. `O=C(NOCc1ccccc1)c1ccc(Cl)cc1`: the cell number change came out at 3.98%. For the same compound, the AC50 under setting [2] was 0.00517 µM [rising, full curve, poor fit]. As for `O=C(CSc1nnc(-c2ccccc2Br)o1)N1CCOCC1`, the cell number change is 9.21%. Turning to `O=C(CCC(=O)Nc1ccc(F)cc1)N/N=C/c1ccc(Br)cc1`, the cell number change is -1.8%. Besides, under setting [2], the AC50 was 6.51 µM [rising, single point].
